Library screen at single concentrations

Data taken from ChEMBL document CHEMBL3988442, “University of Dundee, Small-Polar-MMV Screening Library” (2021).

Each number is a percent effect as filed. The controls that fix the scale are not given in the record; negative values are as filed. The compounds are a random part of those screened. Two or more numbers in one place are separate tests of the same structure; such repeats can differ widely.

Mtb cholesterol medium: 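Whole-cell growth test on Mycobacterium tuberculosis, read after 4 days in a medium based on cholesterol and the lipid DPPC; the read-out is not stated. Tested at 50 µM. The record gives no direction; compounds that gave an IC50 in retests scored well above the rest, so higher reads as more growth inhibition. About 69,000 compounds were tested under these conditions; 0.54% (about 370) showed 50% or more at least once.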
Mtb glucose medium: 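Growth of Mycobacterium tuberculosis over 3 days (7H9 medium with glucose and tyloxapol); the read-out is not stated. Tested at 50 µM. The record gives no direction; compounds that gave an IC50 in retests scored well above the rest, so higher reads as more growth inhibition. Size under these conditions: about 69,000 compounds, about 760 of them at 50% or above in at least one test.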

compound	Mtb cholesterol medium	Mtb glucose medium
Cc1nc2c(C#N)cnn2c(C)c1CCC(=O)N(C)C(C)C(C)C (centres unmarked)	6.79%	-1.404% and 7.172%
CCOc1ccccc1C1CCCN1.Cl (centres unmarked)	15.06%	40.95% and 0.2358%
O=C(O)CSc1nnc(-c2ccn[nH]2)n1-c1ccccc1Cl	-20.2%	10.3%
Cc1ccoc1-c1nnc(CN2CCn3c(nnc3C(C)C)C2)o1	24.37%	14.55%
[H][C@@]12COC[C@@H](C(=O)NC)[C@]1([H])CN(C(=O)c1cccc(OC)c1)C2	-29.79%	-33.48% and -6.879%
O=C(O)C(F)(F)F.O=C(O)C(F)(F)F.[H][C@]12C[C@@H](Cn3cncn3)N(c3nccs3)[C@@]1([H])CCN(C(C)C)C2	-16.62%	-29.78%
Cc1cc(-c2cc(S(=O)(=O)N3C[C@H](C4CC4)[C@@H](N)C3)c(C)s2)on1	-17.5%	7.65%
Cc1cc(N2Cc3cnc(CC(C)C)nc3C2)nc(N)n1	-2.587%	21.02%
COc1ccc(CNC[C@H]2COCc3nc4cc(F)ccc4n32)cc1	3.971%	-1.168% and 3.086%
COCCCN1CCC(c2nc3c([nH]2)CC(C)(C)CNC3=O)C1 (centres unmarked)	-12.66%	-27.82%
[H][C@]12CC[C@]([H])(CN(C3Cc4ccccc4C3)C1)N(Cc1cc(CC)no1)C2	13.6%	33.59%
[H][C@@]12CN(c3ncc(F)cn3)C[C@@]1([H])N(CCN(C)C)C(=O)CO2	8.332%	0.9155% and 0.7048%
Cc1nccc(N[C@H]2CN(CC(C)(C)N3CCOCC3)C[C@@H]2C2CC2)n1	22.74%	-35.49% and 5.508%
Cc1csc(NC(=O)CN2CCc3nn(C)c(=O)cc3C2)n1	-34.29%	-14.92%
CCN(CC)CCN(CC(C)C)c1cc(C(F)(F)F)nc2ncnn12	-7.887%	-10.31% and -9.49%
O=C(NC[C@H]1OC[C@@H](NC2COC2)[C@@H]1O)c1ccccc1	-19.18%	-39.69% and -4.431%
CN(C)C[C@@H]1CN(C(=O)Cc2cccc(O)c2)C[C@@H]1CO	-14.42%	18.78%
COc1ccc(Cl)c(NCC(=O)NCC(=O)N2CCCC2)c1	11.95%	27.63%
COC(=O)NCCCn1ccnc1-c1ccccc1	18.82%	-4.192%